Measurements taken from PubChem BioAssay AID687031 (Broad Institute, 2013).
In all, about 1,400 compounds went through this assay and about 50 (4%) were called active.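 How the source made its calls: active means fitted curve reaches 30% CPE protection at or below the top valid dose, with every test run called active; inconclusive means test runs disagree, some active and some not; inactive means every test run inactive, including effects in the wrong direction.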 This is one part of the list. Results with a measured potency or affinity are listed apart.

Assay: antiviral rescue of DENV2-infected BHK-21 cells – cell-based, ATP luminescence, cherry-pick, dose response (AID 687031);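 further: 0% = infected DMSO wells and 100% = uninfected cell wells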
Conditions: BHK-21 DENV2 CPE protection, 5 d; at 19.5 µM (top of the series) unless noted

CPE protection (higher = active), inactive:
Cc1ccccc1NC(=O)Cc1nc(COC(=O)C(C)(C)Oc2ccc(Cl)cc2)cs1 19.4%
O=C(NCc1cc(C(F)(F)F)cc(C(F)(F)F)c1)C1CC(c2cccc(F)c2)=NO1 (stereo not drawn) 1.22%
Cc1c(Cl)cccc1NC(=O)CC1Oc2ccccc2NC1=O (stereo not drawn) -12.8%
C#CCNC(=O)C[C@@H]1C[C@@]2(C(=O)OC)CCCCC=C2N(Cc2cccc3ccccc23)C1=O -8.6%
C/C=C/c1ccc([C@@H]2[C@@H](CO)N(C(C)=O)[C@@H]2CNC(=O)CC2CC2)cc1 4.22% [at 21 µM]
Cc1cccc(NC(=O)c2cccc(S(=O)(=O)N(C)C3CCCCC3)c2)n1 -10.4%
C[C@@H]1CN([C@H](C)CO)C(=O)Cc2cc(NC(=O)CCCCCC(=O)Nc3ccccc3N)ccc2O[C@@H]1CN(C)S(C)(=O)=O -8.4% [at 16 µM]
Cc1noc(C)c1NC(=O)Nc1ccc2c(c1)C(=O)N([C@@H](C)CO)C[C@@H](C)[C@@H](CN(C)C)OCCCC[C@@H](C)O2 -7.08%
Cc1ccc(S(=O)(=O)N(C)C[C@H]2Oc3ccc(NC(=O)Nc4ccc(F)cc4)cc3CC(=O)N([C@H](C)CO)C[C@@H]2C)cc1 -14% [at 21 µM]
CCN(CC(=O)Nc1cc(Cl)ccc1-n1cncn1)Cc1nc2ccccc2c(=O)[nH]1 1.83%
CC(C)(OC(=O)c1ccc(C#N)cc1)c1cc2ccccc2c(=O)o1 -16.1%
COCCNC(=O)C1(C)CCN(C(=O)Cc2ccc(OC)c(OC)c2)C1 (stereo not drawn) -24.1%
CCOC(=O)c1[nH]c(C)c(C(=O)OCC(=O)N2CC(=O)Nc3ccccc32)c1C 7.13% [at 10 µM]
CN1C(=O)c2cc(NC(=O)NCc3ccccc3)ccc2OC[C@H]2O[C@H](CC(=O)NCC3CCCCC3)CC[C@H]21 -5.84% [at 10 µM]
CC(C)(C)OC(=O)NCc1ccc(CNC(=O)c2nc[nH]c2C(=O)N2CCc3ccccc3C2)cc1 11.2%
COc1cc([C@H](Cc2ccccc2)NC(C)=O)oc(=O)c1 3.82%
CC(C)(C)NC(=O)c1cccc(NC(=O)c2ccc3c(c2)C(=O)N(C(C)(C)C)C3=O)c1 8.46%
NC(=O)c1cc(Cl)cn(-c2ccccc2)c1=O 13.1%
CN(Cc1ccc(Cl)c(Cl)c1)C(=O)C1CC(=O)N(c2ccc3c(c2)OCCO3)C1 (stereo not drawn) 22.4%
CCn1cc(C(=O)NC(C)CCc2ccccc2)c(=O)c2cc(S(=O)(=O)N(C)C)ccc21 (stereo not drawn) 3.85%
CC(C)Oc1ccc(S(=O)(=O)N2CCOCC2)cc1NC(=O)Cc1ccsc1 25.1%
CCCCOc1ccc(C(=O)N/N=C/c2ccc(OCCN3CCCCC3)c(OC)c2)cc1 -4.37%
CCOc1cc(CNCCN2CCOCC2)ccc1OCc1ccccc1Cl 4.31%
Cc1ccc(S(=O)(=O)N2CC[C@@H]3[C@H](CO)Nc4ccc(-c5ccccc5F)cc4[C@@H]32)cc1 -34.1%
O=C(c1cccc(-c2cccc3nccn23)c1)N1CCOCC1 -4.39%
COc1ccc(NC(=O)N(C)C[C@@H]2Oc3ccc(NS(=O)(=O)c4c(C)noc4C)cc3C(=O)N([C@H](C)CO)C[C@@H]2C)cc1 -6.55% [at 21 µM]
CN1C(=O)c2cc(NC(=O)Cc3cccs3)ccc2OC[C@@H]2O[C@H](CC(=O)NCC3CCCCC3)CC[C@H]21 -6.86%
O=C(NN1C(=O)NC2(CCCCC2)C1=O)c1cc(F)cc(F)c1 -5.84%
Cc1cc(C)n2c(NC3CCCC3)c(-c3cccnc3)nc2n1 7.61%
C[C@H](CO)N1C[C@H](C)[C@@H](CN(C)S(C)(=O)=O)Oc2ccc(NC(=O)Nc3ccccc3)cc2C1=O -10.2%
CC(O)(c1cccc(F)c1)c1nc(/C=C/c2ccccc2)cs1 (stereo not drawn) -3.71%
COc1cccc(OC)c1Nc1nc(C)nc2c1nnn2Cc1ccccc1Cl -19.1%
O=C(C[C@H]1C[C@@H]2c3cc(NC(=O)CC4CC4)ccc3O[C@@H]2[C@H](CO)O1)NCc1ccccc1 -5.22%
O=C(Nc1ccc2nc3n(c(=O)c2c1)CCCC3)c1ccccc1F -4.72%
Cc1ccc(S(=O)(=O)N2CCN(C(=O)COC(=O)Cc3ccc(Cl)cc3)CC2)c(C)c1 -8.53%
COc1ccc(COC(=O)C2=C(C)NC(=O)NC2c2ccc(F)cc2)cc1 (stereo not drawn) -0.484%
Cc1nc2c(OCCC3CCCCC3)cccn2c1N(C)C(=O)CCC1CCCC1 -6.23%
CCCCN1C(N)=NC[C@@H]1C(C)O (stereo partly drawn) 11.2%
O=C(NCCc1ccccc1)c1ccccc1NC(=O)C1CCCCC1C(=O)O (stereo not drawn) 3.51%
CCCc1nc2c(C)cc(Br)cn2c1Cc1ccc(OC)cc1C -12.5%
C[C@H](CO)N1C[C@H](C)[C@@H](CN(C)C(=O)Nc2ccc(C(F)(F)F)cc2)OCCCC[C@H](C)Oc2ccc(NC(=O)C3CCCCC3)cc2C1=O -6.54%
O=C(O)C[C@H]1C[C@@H]2c3cc(NC(=O)Cc4ccncc4)ccc3O[C@@H]2[C@@H](CO)O1 28.9% [at 21 µM]
CCCNC(=O)Nc1ccc2c(c1)C(=O)N(C)C[C@H](OC)[C@H](C)CN(C)[C@@H](C)CO2 -22.5%
COc1cc(CNc2nccn3ccnc23)cc(OC)c1 9.75%
Cc1noc(C)c1S(=O)(=O)N(C)C[C@@H]1OCCCC[C@H](C)Oc2ccc(NC(=O)NC(C)C)cc2C(=O)N([C@H](C)CO)C[C@H]1C -4.64% [at 21 µM]
COC(=O)c1cc2ccsc2n1Cc1ccccc1F -9.53%
COc1ccc(S(=O)(=O)N[C@H]2CC[C@@H](CCNC(=O)CN3CCOCC3)O[C@H]2CO)cc1 0.697%
CC(C)c1ccc(NC(=O)Nc2nc(C(N)c3ccccc3Cl)cs2)cc1 (stereo not drawn) -13.2%

Structural class: the compounds so far containing a thiophene ring, fused or not
CPE protection (higher = active), inactive:
CC(C)Oc1ccc(S(=O)(=O)N2CCOCC2)cc1NC(=O)Cc1ccsc1 25.1%
CN1C(=O)c2cc(NC(=O)Cc3cccs3)ccc2OC[C@@H]2O[C@H](CC(=O)NCC3CCCCC3)CC[C@H]21 -6.86%
COC(=O)c1cc2ccsc2n1Cc1ccccc1F -9.53%
